Measurements reported in PubChem BioAssay AID1224826 (NIAID, 2016)
Test: 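Genes that change LPS-induced Tnf promoter activity in mouse macrophages when knocked down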 (primary screen). Cell system: RAW264.7 G9 macrophages from mouse bearing reporters for p65 (GFP) and the Tnf promoter (mCherry). Reagent: siRNA pool against mouse genes, 100 nM. Timing: 16 h of LPS stimulation, after 2 days of siRNA transfection. Treatment: bacterial lipopolysaccharide (Salmonella minnesota R595), 10 ng/ml. Read-out: 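Nuclear mCherry signal of the Tnf promoter reporter measured by imaging after background removal, scaled to each plate median and turned into robust z-scores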. Reading the numbers: Tnf reporter robust z-score: higher = stronger Tnf promoter reporter signal after LPS. Rule for the call: 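a well counts as active at a score of -1.3 or below (Tlr4 knock-down control median) or above 3 (raised signal); controls and wells holding fewer than 50 cells are excluded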. Meaning of the calls: active = Tnf reporter clearly lowered or raised; inactive = no clear change in Tnf reporter.
Shown is one part, drawn at random, of about 17,000 reagents tested. In the full data, about 1,110 (6.6%) were called active. 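Active means lowered or raised reporter signal; replicate intensities are raw and not normalised per plate.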 The numbers tell different reagents against one gene apart. Not all columns of the deposit are shown.

target gene	reagent no.	Tnf reporter robust z-score	fewer than 50 cells in well	call
Myl4 (GeneID 17896)	1	-0.08	enough cells in well	inactive
Tescl (GeneID 69301)	1		fewer than 50 cells per well; well left out of calls	inactive
Fastkd2 (GeneID 75619)	1	-0.43	enough cells in well	inactive
Ang3 (GeneID 11730)	1	-0.43	enough cells in well	inactive
Hook2 (GeneID 170833)	1	-0.11	enough cells in well	inactive
Chm (GeneID 12662)	1	-0.17	enough cells in well	inactive
Med23 (GeneID 70208)	1	-0.61	enough cells in well	inactive
Saa2 (GeneID 20209)	1	0.03	enough cells in well	inactive
Slc4a8 (GeneID 59033)	1	-1.34	enough cells in well	active
Sned1 (GeneID 208777)	1	2.08	enough cells in well	inactive
Wars2 (GeneID 70560)	1	0.92	enough cells in well	inactive
Stip1 (GeneID 20867)	1	-0.6	enough cells in well	inactive
Hcar1 (GeneID 243270)	1	-0.97	enough cells in well	inactive
4930519G04Rik (GeneID 67593)	1		fewer than 50 cells per well; well left out of calls	inactive
S100a7a (GeneID 381493)	1	-0.72	enough cells in well	inactive
Psg28 (GeneID 114871)	1	-0.7	enough cells in well	inactive
Arhgef40 (GeneID 268739)	1	0.32	enough cells in well	inactive
Map2k3 (GeneID 26397)	1	-1.36	enough cells in well	active
Pcyt1b (GeneID 236899)	1		fewer than 50 cells per well; well left out of calls	inactive
Samhd1 (GeneID 56045)	1	-1.37	enough cells in well	active
Mmp24 (GeneID 17391)	1	1.57	enough cells in well	inactive
Hs1bp3 (GeneID 58240)	1	-1.47	enough cells in well	active
Tmem41b (GeneID 233724)	1	1.01	enough cells in well	inactive
Zfp771 (GeneID 244216)	1	-1.48	enough cells in well	active
Disp3 (GeneID 242748)	1	-1.51	enough cells in well	active
Sardh (GeneID 192166)	1	0.39	enough cells in well	inactive
Ncstn (GeneID 59287)	1	0.22	enough cells in well	inactive
Setd7 (GeneID 73251)	1	-0.76	enough cells in well	inactive
Or1e16 (GeneID 258923)	1	2.7	enough cells in well	inactive
Nudt6 (GeneID 229228)	1	0.59	enough cells in well	inactive
Dyrk1b (GeneID 13549)	1	1.56	enough cells in well	inactive
Reg3d (GeneID 30053)	1	-1.23	enough cells in well	inactive
Kcna6 (GeneID 16494)	1	0.19	enough cells in well	inactive
Or4c111 (GeneID 258895)	1	1.78	enough cells in well	inactive
Fam234a (GeneID 106581)	1	-0.62	enough cells in well	inactive
Cntln (GeneID 338349)	1	2.61	enough cells in well	inactive
Cntln (GeneID 338349)	2	-0.35	enough cells in well	inactive
Rusf1 (GeneID 233913)	1	-0.48	enough cells in well	inactive
Cdc14a (GeneID 229776)	1	-0.39	enough cells in well	inactive
Bcl7c (GeneID 12055)	1	1.28	enough cells in well	inactive
Srr (GeneID 27364)	1	0.06	enough cells in well	inactive
Slc6a3 (GeneID 13162)	1	-0.06	enough cells in well	inactive
Fh1 (GeneID 14194)	1	0.72	enough cells in well	inactive
Chmp5 (GeneID 76959)	1		fewer than 50 cells per well; well left out of calls	inactive
Trim65 (GeneID 338364)	1		fewer than 50 cells per well; well left out of calls	inactive
Tcn2 (GeneID 21452)	1	-0.1	enough cells in well	inactive
Klhl38 (GeneID 268807)	1	-0.6	enough cells in well	inactive
Mtmr4 (GeneID 170749)	1	-0.66	enough cells in well	inactive
Tshr (GeneID 22095)	1	-1.48	enough cells in well	active
Nxt1 (GeneID 56488)	1	0.82	enough cells in well	inactive
Or10z1 (GeneID 258710)	1	-0.79	enough cells in well	inactive
Kctd7 (GeneID 212919)	1	0.37	enough cells in well	inactive
Evi5l (GeneID 213027)	1	-0.24	enough cells in well	inactive
Tmem25 (GeneID 71687)	1	-0.37	enough cells in well	inactive
Emc7 (GeneID 73024)	1		fewer than 50 cells per well; well left out of calls	inactive
Thbs4 (GeneID 21828)	1	0.75	enough cells in well	inactive
9430015G10Rik (GeneID 230996)	1	-0.98	enough cells in well	inactive
Slc15a4 (GeneID 100561)	1	0.18	enough cells in well	inactive

Part of the list above, reformatted:
Mmp24 (GeneID 17391) | Tnf reporter robust z-score = 1.57; fewer than 50 cells in well = enough cells in well; call = inactive
Hs1bp3 (GeneID 58240) | Tnf reporter robust z-score = -1.47; fewer than 50 cells in well = enough cells in well; call = active
Tmem41b (GeneID 233724) | Tnf reporter robust z-score = 1.01; fewer than 50 cells in well = enough cells in well; call = inactive
Zfp771 (GeneID 244216) | Tnf reporter robust z-score = -1.48; fewer than 50 cells in well = enough cells in well; call = active
Disp3 (GeneID 242748) | Tnf reporter robust z-score = -1.51; fewer than 50 cells in well = enough cells in well; call = active
Sardh (GeneID 192166) | Tnf reporter robust z-score = 0.39; fewer than 50 cells in well = enough cells in well; call = inactive
Ncstn (GeneID 59287) | Tnf reporter robust z-score = 0.22; fewer than 50 cells in well = enough cells in well; call = inactive
Setd7 (GeneID 73251) | Tnf reporter robust z-score = -0.76; fewer than 50 cells in well = enough cells in well; call = inactive
Or1e16 (GeneID 258923) | Tnf reporter robust z-score = 2.7; fewer than 50 cells in well = enough cells in well; call = inactive
